# PubChem BioAssay AID1259308 | NCATS | 2017
# Purpose: 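Genes whose loss raises luciferase production in HEK293 cells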 (primary screen)
# System: human HEK293 embryonic kidney cells stably expressing firefly luciferase (HEK-CMV-Luc2-Hygro)
# Knock-down reagent: single siRNA against human genes, 0.8 pmol siRNA per well
# Timing: 72 h
# Measurement: 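Luciferase light (ONE-Glo) measured on one replicate plate set and viability (CellTiter-Glo) on the other, scaled to a negative control siRNA, with robust z-scores and luciferase per cell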
# Scale: total luciferase, z-score: higher = more reporter protein produced
# Rule for the call: 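An siRNA counts as active if its total luciferase robust z-score exceeds 3; genes with two or more such siRNAs out of three were retested with fresh siRNAs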
# Calls: active = raised luciferase; inactive = no rise
# The whole screen tested about 59,000 reagents; this is a random part of them. About 1,510 of all reagents (2.6%) count as active. 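Calls use total luciferase alone and ignore viability, so some active siRNAs may act by altering cell number.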 Reagents against one gene are numbered here. Further read-outs or replicates are left out here.
Gene,reagent,"total luciferase, z-score",Call
CFAP126 (cilia and flagella associated protein 126),1,0.148,inactive
CFAP126 (cilia and flagella associated protein 126),2,-0.247,inactive
CFAP126 (cilia and flagella associated protein 126),3,-1.33,inactive
CHRNA2 (cholinergic receptor nicotinic alpha 2 subunit),1,-0.467,inactive
CHRNA2 (cholinergic receptor nicotinic alpha 2 subunit),2,-0.232,inactive
CHRNA2 (cholinergic receptor nicotinic alpha 2 subunit),3,-0.227,inactive
LOC729254 (hCG2045843),1,-0.498,inactive
LOC729254 (hCG2045843),2,0.101,inactive
LOC729254 (hCG2045843),3,-2.88,inactive
CXXC4 (CXXC finger protein 4),1,0.36,inactive
CXXC4 (CXXC finger protein 4),2,0.553,inactive
CXXC4 (CXXC finger protein 4),3,-0.439,inactive
LRRC20 (leucine rich repeat containing 20),1,-0.64,inactive
LRRC20 (leucine rich repeat containing 20),2,-0.455,inactive
LRRC20 (leucine rich repeat containing 20),3,-2.15,inactive
RDM1 (RAD52 motif containing 1),1,1.69,inactive
RDM1 (RAD52 motif containing 1),2,-0.602,inactive
RDM1 (RAD52 motif containing 1),3,1.79,inactive
"ST8SIA2 (ST8 alpha-N-acetyl-neuraminide alpha-2,8-sialyltransferase 2)",1,-1.7,inactive
"ST8SIA2 (ST8 alpha-N-acetyl-neuraminide alpha-2,8-sialyltransferase 2)",2,-1.61,inactive
"ST8SIA2 (ST8 alpha-N-acetyl-neuraminide alpha-2,8-sialyltransferase 2)",3,-0.699,inactive
"FIS1 (fission, mitochondrial 1)",1,-0.707,inactive
"FIS1 (fission, mitochondrial 1)",2,-0.404,inactive
"FIS1 (fission, mitochondrial 1)",3,0.642,inactive
SLC25A3,1,0.576,inactive
SLC25A3,2,-0.782,inactive
SLC25A3,3,-0.979,inactive
EID2B (EP300 interacting inhibitor of differentiation 2B),1,0.149,inactive
EID2B (EP300 interacting inhibitor of differentiation 2B),2,-0.503,inactive
EID2B (EP300 interacting inhibitor of differentiation 2B),3,-0.828,inactive

Single entries from the list:
Result of LRRC20 (leucine rich repeat containing 20) #1 under “total luciferase, z-score”: -0.64
Under “Call”, SLC25A3 #3 has inactive
FIS1 (fission, mitochondrial 1) #2, Call = inactive
RDM1 (RAD52 motif containing 1) #3, total luciferase, z-score = 1.79
Value for ST8SIA2 (ST8 alpha-N-acetyl-neuraminide alpha-2,8-sialyltransferase 2) #1 in “total luciferase, z-score”: -1.7
Under “Call”, FIS1 (fission, mitochondrial 1) #1 shows inactive

The list goes on.
Gene,reagent,"total luciferase, z-score",Call
KNCN (kinocilin),1,-0.717,inactive
KNCN (kinocilin),2,-1.61,inactive
KNCN (kinocilin),3,0.617,inactive
ANKRD53 (ankyrin repeat domain 53),1,-0.856,inactive
ANKRD53 (ankyrin repeat domain 53),2,-0.506,inactive
ANKRD53 (ankyrin repeat domain 53),3,0.887,inactive
HSFY1 (heat shock transcription factor Y-linked 1),1,-0.397,inactive
HSFY1 (heat shock transcription factor Y-linked 1),2,-0.413,inactive
HSFY1 (heat shock transcription factor Y-linked 1),3,-0.0799,inactive
CDK5RAP2 (CDK5 regulatory subunit associated protein 2),1,0.279,inactive
CDK5RAP2 (CDK5 regulatory subunit associated protein 2),2,-0.989,inactive
CDK5RAP2 (CDK5 regulatory subunit associated protein 2),3,0.269,inactive
LARGE2 (LARGE xylosyl- and glucuronyltransferase 2),1,1.04,inactive
LARGE2 (LARGE xylosyl- and glucuronyltransferase 2),2,2,inactive
LARGE2 (LARGE xylosyl- and glucuronyltransferase 2),3,-0.552,inactive
TPBG (trophoblast glycoprotein),1,-0.696,inactive
TPBG (trophoblast glycoprotein),2,0.293,inactive
TPBG (trophoblast glycoprotein),3,4.02,active
RP1L1 (RP1 like 1),1,-1.19,inactive
RP1L1 (RP1 like 1),2,0.452,inactive
RP1L1 (RP1 like 1),3,-0.52,inactive
CMIP (c-Maf inducing protein),1,2.76,inactive
CMIP (c-Maf inducing protein),2,3.29,active
CMIP (c-Maf inducing protein),3,1.2,inactive
FOXN1 (forkhead box N1),1,-0.384,inactive
FOXN1 (forkhead box N1),2,-0.234,inactive
FOXN1 (forkhead box N1),3,6.27,active
